# In the supplement of paper PMC10849652:
# Sequences of proteins named here, by UniProt entry; tags and fusion partners are left off. A change or cut given only in a name is not applied to a line headed by its entry.
# UniProt O00505, whole entry, looked up: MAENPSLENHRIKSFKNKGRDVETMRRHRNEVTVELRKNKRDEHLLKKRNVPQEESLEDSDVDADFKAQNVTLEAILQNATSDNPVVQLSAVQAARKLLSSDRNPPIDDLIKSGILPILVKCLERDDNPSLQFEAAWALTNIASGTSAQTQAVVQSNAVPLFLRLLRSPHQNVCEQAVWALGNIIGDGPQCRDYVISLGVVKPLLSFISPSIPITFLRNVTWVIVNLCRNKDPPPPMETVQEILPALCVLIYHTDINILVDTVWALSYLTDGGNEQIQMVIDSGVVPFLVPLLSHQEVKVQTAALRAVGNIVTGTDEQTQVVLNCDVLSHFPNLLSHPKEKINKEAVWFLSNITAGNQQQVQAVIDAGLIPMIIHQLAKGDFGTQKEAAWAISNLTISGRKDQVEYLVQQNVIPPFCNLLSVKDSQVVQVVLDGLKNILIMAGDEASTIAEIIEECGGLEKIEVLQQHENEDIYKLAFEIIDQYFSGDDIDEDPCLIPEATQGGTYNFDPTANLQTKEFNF
# UniProt Q12840: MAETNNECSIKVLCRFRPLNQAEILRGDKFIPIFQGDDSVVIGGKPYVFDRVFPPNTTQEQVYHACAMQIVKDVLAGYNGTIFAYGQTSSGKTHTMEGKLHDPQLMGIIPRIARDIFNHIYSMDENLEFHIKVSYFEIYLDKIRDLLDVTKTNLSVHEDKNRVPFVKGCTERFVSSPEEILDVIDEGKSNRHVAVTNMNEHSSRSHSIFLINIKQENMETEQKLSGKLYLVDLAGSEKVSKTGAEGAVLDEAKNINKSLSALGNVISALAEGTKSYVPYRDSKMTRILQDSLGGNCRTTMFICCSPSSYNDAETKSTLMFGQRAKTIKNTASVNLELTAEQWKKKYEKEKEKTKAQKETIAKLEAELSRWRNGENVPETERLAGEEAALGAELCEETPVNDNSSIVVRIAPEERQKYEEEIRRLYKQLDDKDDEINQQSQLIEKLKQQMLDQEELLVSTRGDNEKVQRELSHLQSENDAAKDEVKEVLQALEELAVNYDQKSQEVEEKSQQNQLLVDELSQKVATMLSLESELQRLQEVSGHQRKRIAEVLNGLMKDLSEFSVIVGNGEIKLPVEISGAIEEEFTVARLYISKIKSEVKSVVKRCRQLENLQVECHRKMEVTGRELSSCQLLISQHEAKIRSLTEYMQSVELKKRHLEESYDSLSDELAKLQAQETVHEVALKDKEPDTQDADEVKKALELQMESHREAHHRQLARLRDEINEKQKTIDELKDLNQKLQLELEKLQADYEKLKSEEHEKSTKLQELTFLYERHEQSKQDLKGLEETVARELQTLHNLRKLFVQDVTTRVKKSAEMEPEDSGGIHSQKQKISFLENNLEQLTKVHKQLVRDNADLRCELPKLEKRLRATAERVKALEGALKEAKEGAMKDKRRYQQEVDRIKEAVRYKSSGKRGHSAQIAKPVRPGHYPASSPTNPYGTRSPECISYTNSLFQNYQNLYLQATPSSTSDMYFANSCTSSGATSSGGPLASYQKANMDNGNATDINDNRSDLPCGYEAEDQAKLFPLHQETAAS
# UniProt Q9NXV2: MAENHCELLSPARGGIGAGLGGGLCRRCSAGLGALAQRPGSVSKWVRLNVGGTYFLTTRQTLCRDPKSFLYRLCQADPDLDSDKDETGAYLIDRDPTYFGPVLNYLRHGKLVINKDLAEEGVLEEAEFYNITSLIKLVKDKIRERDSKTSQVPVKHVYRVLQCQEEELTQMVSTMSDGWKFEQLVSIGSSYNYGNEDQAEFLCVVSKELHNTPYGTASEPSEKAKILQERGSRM
# UniProt Q9H1H9: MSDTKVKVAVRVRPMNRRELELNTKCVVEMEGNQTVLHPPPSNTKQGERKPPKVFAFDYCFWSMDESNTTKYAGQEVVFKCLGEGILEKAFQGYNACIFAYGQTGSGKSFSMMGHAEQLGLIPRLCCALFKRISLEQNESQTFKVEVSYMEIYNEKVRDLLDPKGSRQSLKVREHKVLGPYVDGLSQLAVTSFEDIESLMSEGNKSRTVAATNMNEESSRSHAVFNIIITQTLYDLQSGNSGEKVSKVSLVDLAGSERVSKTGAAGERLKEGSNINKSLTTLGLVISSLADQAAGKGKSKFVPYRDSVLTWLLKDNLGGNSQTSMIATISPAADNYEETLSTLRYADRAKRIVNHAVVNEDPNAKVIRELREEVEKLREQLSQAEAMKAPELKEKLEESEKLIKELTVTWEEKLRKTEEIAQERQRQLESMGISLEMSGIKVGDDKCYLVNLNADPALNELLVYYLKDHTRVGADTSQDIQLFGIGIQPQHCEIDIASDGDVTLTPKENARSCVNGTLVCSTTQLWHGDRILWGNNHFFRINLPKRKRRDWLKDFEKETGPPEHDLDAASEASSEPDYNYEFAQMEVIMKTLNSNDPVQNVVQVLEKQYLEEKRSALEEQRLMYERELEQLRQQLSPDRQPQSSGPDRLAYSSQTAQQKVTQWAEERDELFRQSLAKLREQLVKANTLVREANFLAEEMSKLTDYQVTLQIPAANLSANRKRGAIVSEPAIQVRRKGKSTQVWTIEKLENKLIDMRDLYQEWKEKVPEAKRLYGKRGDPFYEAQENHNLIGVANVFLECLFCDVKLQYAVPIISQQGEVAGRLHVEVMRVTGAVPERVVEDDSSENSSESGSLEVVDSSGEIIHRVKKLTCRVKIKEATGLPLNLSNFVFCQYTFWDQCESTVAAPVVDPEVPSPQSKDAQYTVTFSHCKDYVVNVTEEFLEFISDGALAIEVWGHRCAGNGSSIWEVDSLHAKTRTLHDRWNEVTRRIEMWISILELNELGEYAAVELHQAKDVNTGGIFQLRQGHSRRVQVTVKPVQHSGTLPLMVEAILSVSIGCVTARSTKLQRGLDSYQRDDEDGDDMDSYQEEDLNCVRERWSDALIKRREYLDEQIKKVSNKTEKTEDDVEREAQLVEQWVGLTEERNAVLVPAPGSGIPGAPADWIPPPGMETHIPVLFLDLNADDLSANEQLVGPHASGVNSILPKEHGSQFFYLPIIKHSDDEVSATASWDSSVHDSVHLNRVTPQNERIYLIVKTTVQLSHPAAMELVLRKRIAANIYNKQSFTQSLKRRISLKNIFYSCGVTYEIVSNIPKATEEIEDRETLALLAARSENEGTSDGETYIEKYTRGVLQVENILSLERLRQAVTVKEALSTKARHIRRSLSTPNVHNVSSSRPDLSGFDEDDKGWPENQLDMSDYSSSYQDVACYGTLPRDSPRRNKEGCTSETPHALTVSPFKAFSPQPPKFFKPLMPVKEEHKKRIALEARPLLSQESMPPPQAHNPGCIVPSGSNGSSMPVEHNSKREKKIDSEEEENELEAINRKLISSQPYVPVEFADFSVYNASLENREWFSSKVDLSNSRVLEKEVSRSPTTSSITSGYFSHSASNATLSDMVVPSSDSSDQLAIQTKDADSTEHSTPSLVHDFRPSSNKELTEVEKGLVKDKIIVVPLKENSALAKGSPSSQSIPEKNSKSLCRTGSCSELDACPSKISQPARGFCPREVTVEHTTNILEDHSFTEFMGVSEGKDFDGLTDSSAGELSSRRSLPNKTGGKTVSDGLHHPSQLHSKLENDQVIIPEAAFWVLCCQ
# UniProt Q8IY47: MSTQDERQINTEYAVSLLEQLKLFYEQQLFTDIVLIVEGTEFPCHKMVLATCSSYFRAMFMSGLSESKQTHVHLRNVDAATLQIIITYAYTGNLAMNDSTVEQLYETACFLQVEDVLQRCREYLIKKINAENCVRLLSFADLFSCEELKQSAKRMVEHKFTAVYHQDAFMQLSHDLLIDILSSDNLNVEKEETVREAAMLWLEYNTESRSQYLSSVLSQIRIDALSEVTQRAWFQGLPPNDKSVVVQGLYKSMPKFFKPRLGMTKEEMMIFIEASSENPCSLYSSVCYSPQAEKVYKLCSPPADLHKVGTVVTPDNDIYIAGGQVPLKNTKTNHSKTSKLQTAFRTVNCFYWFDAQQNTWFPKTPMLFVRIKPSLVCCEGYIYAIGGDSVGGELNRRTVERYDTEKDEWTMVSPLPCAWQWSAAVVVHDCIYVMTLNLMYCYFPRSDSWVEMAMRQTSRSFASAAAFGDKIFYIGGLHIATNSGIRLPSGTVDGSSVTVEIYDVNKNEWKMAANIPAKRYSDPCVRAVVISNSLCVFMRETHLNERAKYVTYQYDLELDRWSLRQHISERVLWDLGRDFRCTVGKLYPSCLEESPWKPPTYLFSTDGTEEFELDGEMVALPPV
# UniProt Q8TBB5: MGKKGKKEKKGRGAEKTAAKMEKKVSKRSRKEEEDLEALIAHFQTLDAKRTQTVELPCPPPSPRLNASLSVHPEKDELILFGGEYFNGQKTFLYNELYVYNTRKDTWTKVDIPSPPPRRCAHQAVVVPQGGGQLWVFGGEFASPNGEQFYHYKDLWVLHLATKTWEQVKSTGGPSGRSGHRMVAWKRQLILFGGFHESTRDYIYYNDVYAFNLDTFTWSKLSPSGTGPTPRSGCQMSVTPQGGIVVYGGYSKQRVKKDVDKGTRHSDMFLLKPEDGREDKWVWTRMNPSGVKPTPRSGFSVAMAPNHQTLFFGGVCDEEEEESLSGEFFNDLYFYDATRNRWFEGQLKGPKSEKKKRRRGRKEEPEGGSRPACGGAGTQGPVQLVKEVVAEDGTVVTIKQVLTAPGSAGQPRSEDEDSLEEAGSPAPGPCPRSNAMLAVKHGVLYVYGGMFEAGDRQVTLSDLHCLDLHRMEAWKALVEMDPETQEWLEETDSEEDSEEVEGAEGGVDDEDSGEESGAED
# UniProt Q7L273: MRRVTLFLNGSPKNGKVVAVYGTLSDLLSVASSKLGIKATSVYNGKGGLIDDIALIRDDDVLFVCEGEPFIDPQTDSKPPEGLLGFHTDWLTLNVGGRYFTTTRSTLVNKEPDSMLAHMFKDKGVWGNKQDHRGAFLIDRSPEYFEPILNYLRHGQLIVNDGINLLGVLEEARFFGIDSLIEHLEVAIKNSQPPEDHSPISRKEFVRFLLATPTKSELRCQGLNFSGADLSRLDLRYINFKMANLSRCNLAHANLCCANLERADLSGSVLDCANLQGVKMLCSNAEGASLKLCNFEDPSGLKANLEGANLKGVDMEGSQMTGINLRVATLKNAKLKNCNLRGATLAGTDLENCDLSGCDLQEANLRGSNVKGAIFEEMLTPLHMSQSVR
# UniProt Q8NC54: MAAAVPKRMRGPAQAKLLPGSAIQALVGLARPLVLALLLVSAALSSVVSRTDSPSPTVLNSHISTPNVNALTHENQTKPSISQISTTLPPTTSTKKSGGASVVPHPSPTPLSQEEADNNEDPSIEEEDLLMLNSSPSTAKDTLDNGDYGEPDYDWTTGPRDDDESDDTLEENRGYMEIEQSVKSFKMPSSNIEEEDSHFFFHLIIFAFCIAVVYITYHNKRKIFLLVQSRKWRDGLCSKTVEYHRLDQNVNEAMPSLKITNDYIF
# UniProt Q8IVT5: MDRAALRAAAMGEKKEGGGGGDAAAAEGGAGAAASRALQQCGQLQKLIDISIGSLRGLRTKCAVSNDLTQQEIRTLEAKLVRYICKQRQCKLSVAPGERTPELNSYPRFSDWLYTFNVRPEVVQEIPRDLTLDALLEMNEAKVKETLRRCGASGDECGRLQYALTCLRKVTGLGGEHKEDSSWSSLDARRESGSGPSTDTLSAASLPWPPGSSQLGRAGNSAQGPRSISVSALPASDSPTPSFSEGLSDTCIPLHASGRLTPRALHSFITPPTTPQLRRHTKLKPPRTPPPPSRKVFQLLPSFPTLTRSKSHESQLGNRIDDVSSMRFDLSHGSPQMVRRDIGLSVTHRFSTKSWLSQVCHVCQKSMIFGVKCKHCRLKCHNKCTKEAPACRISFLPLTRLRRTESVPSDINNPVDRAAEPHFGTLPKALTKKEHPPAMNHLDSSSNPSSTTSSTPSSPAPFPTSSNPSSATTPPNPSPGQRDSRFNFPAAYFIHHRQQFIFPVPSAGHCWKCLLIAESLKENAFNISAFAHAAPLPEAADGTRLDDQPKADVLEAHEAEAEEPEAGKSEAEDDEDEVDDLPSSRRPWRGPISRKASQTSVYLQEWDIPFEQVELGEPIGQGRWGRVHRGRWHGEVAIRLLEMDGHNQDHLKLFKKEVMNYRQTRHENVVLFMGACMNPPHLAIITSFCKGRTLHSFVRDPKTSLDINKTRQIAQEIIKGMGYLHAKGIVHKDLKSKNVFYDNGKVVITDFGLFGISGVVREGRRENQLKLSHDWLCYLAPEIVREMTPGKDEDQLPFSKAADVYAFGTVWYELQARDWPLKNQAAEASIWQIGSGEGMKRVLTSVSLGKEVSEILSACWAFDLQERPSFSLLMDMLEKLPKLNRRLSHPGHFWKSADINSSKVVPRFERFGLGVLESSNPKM
# This is one part of the list. Residues, ends and D or L forms follow the SMILES beside them. *: point of attachment. Cbz = O=C(OCc1ccccc1)*
# How the values were obtained:
# Test in all cases: log2 fold change, soluble protein after heating vs DMSO (PISA); higher = thermal stabilisation; K562 cells, 10 uM, 30 min; active = over 0.2 and 3.5 SD of the protein, either way, in both replicates (recomputed)
# erlotinib = compound: C#Cc1cccc(Nc2ncnc3cc(OCCOC)c(OCCOC)cc23)c1 [erlotinib]
# In short: (§1)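 Soluble protein was quantified by TMTpro 16plex LC-MS/MS after channel sums were equalised. It was obtained as the supernatant after 21,000xg for 90 min from pooled aliquots of K562 cells (2×10^6 cells/mL, 10 μM compound, 30 min) heated for 3 min across 48°C-58°C and extracted in PBS with 0.5% NP-40 at 4°C. Thermal stability values are relative to control samples and come from duplicates. They are given as log2 fold changes.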
# [1] = compound: C/C(=N\NC(=O)C1=CC(=CC=C1)S(=O)(=O)N2CCOCC2)/C3=C(C=CC(=C3)Cl)O
# In short: as §1
# [2] = compound: C1=CC(=C(C=C1Cl)C2=NC3=NC=CN=C3C(=N2)NC4=CC=NC=C4)F
# In short: as §1
# [3] = compound: C1=CC(=CC=C1C2=NC3=C(N2)C=C(C=C3)C(=O)N)OC4=CC=C(C=C4)Cl
# In short: as §1
# [4] = compound: C1=CC2=C(C=CC(=C2)/C=C\3/C(=O)NC(=NCC4=CC=CS4)S3)N=C1
# In short: as §1
# [5] = compound: C1=CC2=NC=CN=C2C=C1/C=C/3\C(=O)NC(=O)S3
# In short: as §1
# [6] = compound: C1=CC=C(C=C1)C2=NC(=C(N2)C3=CC=NC=C3)C4=CC(=C(C=C4)Cl)O
# In short: as §1
# [7] = compound: C1=CC=C2C(=C1)C3=NNC4=CC=CC(=C43)C2=O
# In short: as §1
# [8] = compound: C1CCN(C1)C(=O)NC2=CC=CC(=C2)NC3=NC=C(C(=N3)NCCC4=CN=CN4)Br
# In short: as §1
# [9] = compound: C1CN(CCC1(CC2=CC=C(C=C2)Cl)N)C3=NC=NC4=C3C=CN4
# In short: as §1
# IRAK-1-4 Inhibitor I = compound: C1COCCN1CCN2C3=CC=CC=C3N=C2NC(=O)C4=CC(=CC=C4)[N+](=O)[O-] [IRAK-1-4 Inhibitor I]
# In short: as §1
# ibrutinib = compound: C=CC(=O)N1CCC[C@@H](n2nc(-c3ccc(Oc4ccccc4)cc3)c3c(N)ncnc32)C1 [ibrutinib]
# In short: as §1
# [10] = compound: CC(=O)c1cnc2ccc(-c3cc(Cl)c(O)c(Cl)c3)nc2c1N[C@H]1CC[C@H](CN(C)C)CC1
# In short: as §1
# ralimetinib = compound: CC(C)(C)Cn1c(N)nc2ccc(-c3[nH]c(C(C)(C)C)nc3-c3ccc(F)cc3)nc21 [ralimetinib]
# In short: as §1
# [11] = compound: CC(C)(O)CC(=O)NCCn1ccc2ncnc(Nc3ccc(Oc4cccc(C(F)(F)F)c4)c(Cl)c3)c21
# In short: as §1
# [12] = compound: CC(C)C1=C2N=C(C=C(N2N=C1)NCC3=CC=CC=C3)NCCCCCCN
# In short: as §1
# [13] = compound: CC(C)C[C@@H](C=O)NC(=O)[C@H](CC(C)C)NC(=O)[C@H](CC(C)C)NC(=O)OCc1ccccc1
# In short: as §1
# pinometostat = compound: CC(C)N(C[C@H]1O[C@@H](n2cnc3c(N)ncnc32)[C@H](O)[C@@H]1O)[C@H]1C[C@@H](CCc2nc3cc(C(C)(C)C)ccc3[nH]2)C1 [pinometostat]
# In short: as §1
# [14] = compound: CC1=C(C(CC(=O)N1)C2=CC=C(C=C2)C(F)(F)F)C(=O)NC3=C(C=C4C(=C3)C=NN4)F
# In short: as §1
# [15] = compound: CC1=C(C2=C(C=C1)C(=O)C3=CC=CC=C3N2CCCN)C
# In short: as §1
Target,log2 fold change (erlotinib),log2 fold change [1],log2 fold change [2],log2 fold change [3],log2 fold change [4],log2 fold change [5],log2 fold change [6],log2 fold change [7],log2 fold change [8],log2 fold change [9],log2 fold change (IRAK-1-4 Inhibitor I),log2 fold change (ibrutinib),log2 fold change [10],log2 fold change (ralimetinib),log2 fold change [11],log2 fold change [12],log2 fold change [13],log2 fold change (pinometostat),log2 fold change [14],log2 fold change [15]
KPNA3 (UniProt O00505),inactive: -0.038,inactive: 0.048,inactive: 0.056,inactive: 0.076,inactive: 0.047,inactive: 0.032,inactive: -0.005,inactive: -0.007,inactive: 0.011,inactive: 0.011,inactive: 0.016,inactive: -0.023,inactive: -0.019,inactive: -0.019,inactive: -0.028,inactive: -0.042,inactive: -0.073,inactive: -0.039,inactive: -0.003,inactive: -0.179
KPNA6 (UniProt O60684),inactive: 0.077,inactive: 0.108,inactive: -0.068,inactive: -0.075,inactive: 0.013,inactive: 0.059,inactive: 0.015,inactive: -0.119,inactive: 0.017,inactive: -0.07,inactive: -0.046,inactive: -0.032,inactive: -0.04,inactive: 0.077,inactive: -0.047,inactive: -0.239,inactive: 0.087,inactive: 0.087,,inactive: -0.15
KIF5A (UniProt Q12840),inactive: -0.022,inactive: 0.018,inactive: 0.028,inactive: 0.014,inactive: 0.042,inactive: 0.018,inactive: 0.022,inactive: 0.012,inactive: 0.008,inactive: -0.032,inactive: 0.014,inactive: -0.008,inactive: -0.018,inactive: -0.014,inactive: -0.032,inactive: 0.025,inactive: 0.035,inactive: -0.003,inactive: -0.031,inactive: 0.013
JAG2 (UniProt Q9Y219),inactive: 0.016,inactive: -0.019,inactive: -0.019,inactive: 0.04,inactive: -0.041,inactive: -0.112,inactive: -0.159,inactive: -0.233,inactive: -0.081,inactive: 0.081,inactive: 0.101,inactive: 0.047,inactive: -0.008,inactive: -0.136,inactive: 0.045,inactive: -0.026,inactive: 0.046,inactive: -0.007,inactive: -0.071,inactive: 0.027
KDM8 isoform 3 (UniProt Q8N371),inactive: 0.008,inactive: 0.005,inactive: 0.041,inactive: -0.019,inactive: 0.099,inactive: 0.023,inactive: 0.012,inactive: 0.017,inactive: -0.049,inactive: 0.024,inactive: 0.005,inactive: 0.018,inactive: -0.038,inactive: -0.023,inactive: -0.081,inactive: -0.014,inactive: 0.014,inactive: 0.046,inactive: -0.003,inactive: 0.048
KCTD5 (UniProt Q9NXV2),inactive: 0.036,inactive: 0.062,inactive: 0.081,inactive: 0.026,inactive: 0.14,inactive: 0.038,inactive: 0.043,inactive: -0.14,inactive: 0.015,inactive: 0.03,inactive: -0.042,inactive: -0.006,inactive: -0.006,inactive: -0.015,inactive: -0.04,inactive: 0.158,inactive: 0.041,inactive: 0,inactive: 0.014,inactive: -0.026
KIF13A (UniProt Q9H1H9),inactive: 0.065,inactive: -0.026,inactive: -0.031,inactive: 0.017,inactive: 0.056,inactive: -0.009,inactive: -0.027,inactive: -0.055,inactive: -0.043,inactive: 0.072,inactive: 0.045,inactive: 0.042,inactive: 0.047,inactive: -0.015,inactive: 0.025,inactive: -0.069,inactive: 0.035,inactive: -0.008,,inactive: -0.044
KBTBD2 (UniProt Q8IY47),inactive: 0.034,inactive: -0.204,inactive: 0.036,inactive: 0.063,inactive: 0.052,inactive: -0.034,inactive: -0.002,inactive: 0.019,inactive: -0.036,inactive: 0.086,inactive: 0.034,inactive: 0.025,inactive: -0.009,inactive: -0.015,inactive: -0.074,inactive: 0.007,inactive: -0.037,inactive: -0.001,inactive: 0.005,inactive: 0.008
KLC1 isoform 6 (UniProt Q07866),inactive: -0.016,inactive: 0.054,inactive: 0.052,inactive: 0.002,inactive: 0.023,inactive: 0.051,inactive: -0.019,inactive: 0.001,inactive: 0.014,inactive: -0.018,inactive: 0.014,inactive: -0.027,inactive: -0.033,inactive: -0.021,inactive: -0.022,inactive: -0.001,inactive: 0.013,inactive: 0.004,inactive: 0.007,inactive: 0.021
KLHDC4 (UniProt Q8TBB5),inactive: -0.066,inactive: -0.075,inactive: -0.174,inactive: -0.013,inactive: 0.077,inactive: -0.123,inactive: -0.081,inactive: 0.07,inactive: -0.113,inactive: 0.119,inactive: -0.008,inactive: -0.011,inactive: -0.008,inactive: 0.062,inactive: 0.002,inactive: 0.065,inactive: 0.017,inactive: 0.199,,inactive: 0.159
KCTD9 (UniProt Q7L273),inactive: -0.025,inactive: 0.004,inactive: -0.014,inactive: 0.013,inactive: 0.039,inactive: -0.022,inactive: -0.031,inactive: -0.009,inactive: -0.077,inactive: 0.041,inactive: 0.037,inactive: 0.038,inactive: -0.123,inactive: -0.055,inactive: -0.03,inactive: 0.073,inactive: 0.088,inactive: -0.085,inactive: -0.119,inactive: -0.056
KNTC1 (UniProt P50748),inactive: 0.102,inactive: 0.068,inactive: 0.029,inactive: -0.039,inactive: 0.019,inactive: 0.034,inactive: -0.065,inactive: -0.012,inactive: 0.001,inactive: -0.004,inactive: -0.084,inactive: -0.028,inactive: 0.058,inactive: -0.007,inactive: 0.012,inactive: -0.157,inactive: 0.039,inactive: 0.095,,inactive: -0.008
KATNA1 (UniProt O75449),inactive: -0.038,inactive: 0.023,inactive: -0.077,inactive: 0.03,inactive: 0.051,inactive: -0.012,inactive: -0.021,inactive: 0.027,inactive: 0.014,inactive: -0.084,inactive: -0.04,inactive: -0.045,inactive: -0.1,inactive: 0.037,inactive: -0.051,inactive: -0.059,inactive: 0.124,inactive: 0.058,inactive: -0.014,inactive: 0.054
KRAS isoform 2 (UniProt P01116),inactive: -0.035,inactive: -0.011,inactive: 0.006,inactive: 0.029,inactive: 0.005,inactive: 0.019,inactive: 0.002,inactive: -0.03,inactive: 0.045,inactive: -0.084,inactive: 0.045,inactive: -0.035,inactive: -0.07,inactive: 0.02,inactive: 0.101,inactive: 0.099,active: 0.241,inactive: 0.014,,inactive: 0.072
KCT2 (UniProt Q8NC54),inactive: 0.069,inactive: 0.019,inactive: 0.064,inactive: 0.061,inactive: -0.005,inactive: 0.075,inactive: 0.096,inactive: -0.005,inactive: -0.028,inactive: 0.056,inactive: 0.039,inactive: 0.029,inactive: -0.04,inactive: -0.014,inactive: 0.004,inactive: -0.118,inactive: -0.011,inactive: 0.009,,inactive: -0.035
KSR1 (UniProt Q8IVT5),inactive: 0.082,inactive: 0.004,inactive: 0.044,inactive: -0.044,inactive: 0.162,inactive: 0.058,inactive: 0.185,inactive: -0.106,inactive: -0.088,inactive: 0.058,inactive: -0.07,inactive: -0.084,active: -0.807,inactive: 0.065,inactive: -0.231,inactive: -0.085,inactive: 0.085,inactive: 0.035,,inactive: 0.044

# Single values from the results shown:
# KRAS isoform 2 (UniProt P01116) | log2 fold change [8]: inactive: 0.045
# JAG2 (UniProt Q9Y219) | log2 fold change [6]: inactive: -0.159
